The assay can be described thus: qHTS Assay for Lipid Storage Modulators in Drosophila S3 Cells.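 As to cell number change: cells counted by Cell Tracker Red CMTPX staining in the red channel.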 The conditions noted are these: BODIPY lipid droplet fluorescence, 18-24 h; for cell number change: measured here: cell count max response, cells fed with added oleic acid. The gist of the method:
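Laser-scanning cytometry quantifies lipid droplet accumulation (500–530 nm total intensity; droplet/cell object ratio) in oleic acid-fed (400 uM added) Drosophila S3 cells treated with a concentration series. 20 uM Triacsin C defined 100% inhibition.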
(In general: Quantitative high-throughput screening tests each substance at several concentrations.)

[1] abbreviates: measured here: lipid fluorescence (Fed channel) AC50, cells fed with added oleic acid.
Where [2] appears, read: measured here: cell number channel AC50, cells fed with added oleic acid.

The structures appear in SMILES notation. Where “and” joins values, the source holds several entries; their conditions need not be identical. Equal values may be shown once. This is one part of the list. Shown are side measurements of this screen, not its main read-out; they come without a call. Most of these compounds were active or inconclusive in the main read-out, so they are no random draw. The note in brackets gives the kind of curve behind each potency; many fits are weak.

Consider `NS(=O)(=O)c1ccc(NC(=O)c2ccc(-c3ccccc3)cc2)cc1`, for which the cell number change stood at 25%. Further, under setting [1], the concentration at half-maximal activity (AC50) (usually the concentration at which the activity in the assay is half-maximal) is 5.8 µM [falling, single point].
For the molecule `COc1ccc(-n2ncc3c2CC(C)(C)CC3NC(=O)CN2CCOC2=O)cc1` (configuration not stated), the cell number change came out at 5.67%.
Take `O=C(COC(=O)c1ccc(S(=O)(=O)N2CCCC2)cc1)Nc1cccc(Br)c1`: the cell number change was -1.4%. The concentration at half-maximal activity (AC50) under setting [1] was 0.651 µM [falling, full curve].
As to `CC1CCN(C(=O)CSc2nnc(CNC(=O)c3ccco3)o2)CC1`, the cell number change stood at 66.1%. For the same molecule, the AC50 under setting [2] was 20.6 µM [rising, single point]. Also, the concentration at half-maximal activity (AC50) under setting [1] was 0.58 µM [falling, single point].
Take `CCC(C(=O)OCC(=O)N1CCN(S(=O)(=O)c2ccc(C)cc2C)CC1)c1ccccc1` (configuration not stated): the cell number change was -23.3%. For the same molecule, the AC50 under setting [1] was 8.2 µM [rising, partial curve, poor fit].
`COc1ccccc1C(=O)NC(=O)COC(=O)Cc1ccccc1[N+](=O)[O-]`: the concentration at half-maximal activity (AC50) under setting [1] is 6.51 µM [rising, single point].
As to `CCc1ccccc1-n1c(SCC(=O)N2CCCC2)nnc1-c1ccccn1`, the half-maximal activity concentration (AC50) runs as follows: under setting [2], 6.51 µM [falling, single point]; under setting [1], 0.731 µM [rising, single point].
For the molecule `CNc1nc(Sc2ccc(C)cc2)cc(C(F)(F)F)n1`, the cell number change turned out to be 18.6%.
For `O=C(NCC(=O)N(c1cccnc1)C(C(=O)NC1CCCC1)c1ccco1)c1cccs1` (configuration not stated), the cell number change was -26.4%. In addition, the AC50 under setting [1] is 32.6 µM [falling, partial curve, poor fit].
For the molecule `CC(=O)c1ccccc1OCCCN1CCCCC1`, the cell number change was -10.7%. In addition, the half-maximal activity concentration (AC50) under setting [1] is 6.51 µM [falling, single point].
In the case of `CC1CN(CCCOc2ccccc2-c2ccccc2)CC(C)O1` (configuration not stated), the cell number change was -0.184%.
As to `O=C(NCCS(=O)(=O)N1CCc2ccccc2C1)c1ccccc1`, the cell number change was 11.9%.
`Cc1ccc(CN2CCN(/N=C/c3ccc(C)s3)CC2)cc1`: the cell number change is -6.51%. For the same molecule, under setting [1], the concentration at half-maximal activity (AC50) is 0.00517 µM [rising, full curve, poor fit].
Turning to `NC(=O)NC(=O)CSc1ccccc1`, the cell number change is 4.52%.
For `COc1ccc(NC(=O)c2ccc(S(=O)(=O)N3CCOCC3)o2)cc1`, the cell number change came to 21.1%. Further, the concentration at half-maximal activity (AC50) under setting [1] is 2.31 µM [rising, full curve, poor fit].
For `CC1=C(C(=O)N2CCOCC2)C(c2ccc(O)cc2)NC(=S)N1` (configuration not stated), the cell number change was 5.92%. For the same molecule, the AC50 under setting [1] is 18.4 µM [falling, single point].
On to `CCOC(=O)c1c(C)[nH]c(C(=O)COC(=O)c2ccc(F)c(S(=O)(=O)N3CCOCC3)c2)c1C`, for which the AC50 under setting [2] is 0.164 µM [rising, full curve, poor fit].
`CCOC(=O)C1C(=O)C=C(/C=C/c2ccc(N(C)C)cc2)CC1c1ccccc1` (configuration not stated): the cell number change is -94.8%. Under setting [2], the AC50 is 4.61 µM [falling, full curve]. Moreover, under setting [1], the AC50 is 4.11 µM [falling, full curve].
For `CCOc1cc(/C=C2\SC(=S)N(C(C(=O)O)c3ccccc3)C2=O)ccc1O` (configuration not stated), the cell number change is -91.9%. Besides, the concentration at half-maximal activity (AC50) under setting [2] was 29.1 µM [falling, partial curve, poor fit]. Besides, under setting [1], the concentration at half-maximal activity (AC50) was 25.9 µM [falling, partial curve].
Regarding `CCCNC(=S)N1CCN(C)CC1`, the cell number change came to 12.3%. Also, the half-maximal activity concentration (AC50) under setting [2] was 0.461 µM [falling, single point]. In addition, under setting [1], the half-maximal activity concentration (AC50) is 1.16 µM [falling, single point].
Regarding `CCOC(=O)/C(C#N)=C/c1c[nH]c2ccccc12`, the cell number change was -29.9% and -28.9%. Besides, the AC50 under setting [1] was 16.4 µM [falling, single point] and 29.1 µM [falling, single point].
For the molecule `Cc1c(C(=O)N2CCCCC2C)sc2nc3n(c(=O)c12)CCC3` (configuration not stated), the cell number change came to 9.25%. In addition, under setting [1], the concentration at half-maximal activity (AC50) is 0.58 µM [rising, full curve].
In the case of `CC1CN(S(=O)(=O)c2ccc(C(=O)Nc3nnc(-c4ccc5c(c4)CCCC5)o3)cc2)CC(C)O1` (configuration not stated), the cell number change is 38.7%. The AC50 under setting [2] is 29.1 µM [rising, single point].
For the molecule `O=C(c1ccc([N+](=O)[O-])cc1)N1CCN(C(=O)C2CCCCC2)CC1`, the cell number change was 10.1%.
Consider `Cc1ccc(N2CC(C(=O)NC3=NCCS3)CC2=O)cc1` (configuration not stated), for which the cell number change is -23.1%. Also, the AC50 under setting [2] is 3.66 µM [falling, full curve, poor fit].
In the case of `COc1cc(-c2cc(C(=O)N3CCCCCC3)c3ccccc3n2)cc(OC)c1OC`, the cell number change was -32.8%. In addition, the AC50 under setting [2] was 11.6 µM [falling, partial curve].
Regarding `COc1ccc2nc(NC(=O)CSc3nnc(-c4ccoc4C)n3C)sc2c1`, the cell number change is -9.6%. Besides, under setting [1], the concentration at half-maximal activity (AC50) was 0.116 µM [falling, full curve, poor fit].
Turning to `COc1ccc(C(=O)CC(CC(=O)c2ccc(OC)cc2)C(=O)O)cc1`, the cell number change was 15.3%. The concentration at half-maximal activity (AC50) under setting [1] is 18.4 µM [rising, partial curve, poor fit].
For `CCn1c(C)nc2cc(C(=O)N=Nc3c(O)[nH]c4c(C)cc(C)cc34)ccc21`, the cell number change is 10.6%. The half-maximal activity concentration (AC50) under setting [2] was 5.17 µM [rising, single point]. Further, under setting [1], the AC50 was 6.51 µM [rising, single point].
As to `Cc1oc2ccccc2c1CNC(=O)N(C)C`, the cell number change was found to be 20.4%. The half-maximal activity concentration (AC50) under setting [1] is 2.59 µM [rising, full curve, poor fit].
With `O=C(N1CCOCC1)C1(c2ccc(Cl)cc2)CCCC1`, the cell number change was 35.5%. For the same molecule, under setting [2], the AC50 was 29.1 µM [rising, partial curve].
On to `Cn1c(SCC(=O)Nc2ccc(N3CCOCC3)cc2)nnc1-c1ccco1`, for which the cell number change is -10.3%. In addition, the concentration at half-maximal activity (AC50) under setting [2] was 0.0651 µM [falling, full curve, poor fit]. The AC50 under setting [1] was 5.8 µM [rising, partial curve].
With `Brc1ccc(-c2csc(/N=C/N3CCOCC3)n2)cc1`, the cell number change was 107%. For the same molecule, under setting [2], the concentration at half-maximal activity (AC50) was 18.4 µM [rising, single point]. Further, the half-maximal activity concentration (AC50) under setting [1] was 20.6 µM [rising, partial curve].
As for `CCN(CC)C(=O)C1CCCN(c2ncnc3c2cnn3-c2cccc(C)c2)C1` (configuration not stated), the cell number change is -15.5%. Also, the AC50 under setting [1] was 1.84 µM [rising, partial curve, poor fit].
As to `COc1cccc(N2C(=O)C(CC(=O)Nc3ccccc3)N(C3CCCCC3)C2=O)c1` (configuration not stated), the cell number change stood at 106%. In addition, under setting [2], the concentration at half-maximal activity (AC50) is 20.6 µM [rising, single point].
On to `N#Cc1c(C#N)c(-c2ccccc2)n(-c2ccc(C(=O)O)cc2)c1N`, for which the cell number change is -23.3%. Also, the half-maximal activity concentration (AC50) under setting [1] was 0.651 µM [falling, full curve].
As to `CC1(C)C=Cc2c(c3c(c4c(=O)c(-c5ccc(O)cc5)coc24)OC(C)(C)CC3)O1`, the cell number change is -31.4%. The AC50 under setting [2] is 20.6 µM [falling, single point]. The AC50 under setting [1] is 25.9 µM [falling, partial curve].
For the molecule `CC(C)C[C@@H](CO)N1CCN(Cc2ccc(O)cc2)CCC1=O`, the cell number change is 35%. The half-maximal activity concentration (AC50) under setting [2] is 0.146 µM [rising, full curve]. The half-maximal activity concentration (AC50) under setting [1] is 5.8 µM [rising, full curve].
As to `COc1ccc(S[C@@H](CCN2CC[C@H](O)CCC2=O)c2ccccc2)cc1`, the cell number change is 10.1%. In addition, under setting [2], the AC50 was 0.517 µM [falling, full curve, poor fit]. The AC50 under setting [1] is 0.00461 µM [falling, full curve, poor fit].
For the molecule `CC(C)(C)n1nnnc1C(c1ccccn1)N(Cc1ccccc1)Cc1ccc(Cl)cc1` (configuration not stated), the cell number change is -18.1%. Also, the half-maximal activity concentration (AC50) under setting [2] was 0.0164 µM [falling, full curve, poor fit]. The AC50 under setting [1] was 0.00517 µM [falling, full curve, poor fit].
Turning to `CCNC(=S)NN(c1ccccc1)c1ccccc1`, the cell number change amounted to 4.83%. The AC50 under setting [1] is 6.51 µM [falling, single point].
Take `C/C(=N\Nc1ccccc1C)c1cccnc1`: the cell number change was -8.03%. Further, the half-maximal activity concentration (AC50) under setting [1] was 16.4 µM [rising, partial curve, poor fit].
In the case of `CC(C)(C)c1cc(CCC(=O)NCCc2ccccn2)cc(C(C)(C)C)c1O`, the cell number change was determined as 5.56%. Further, the AC50 under setting [1] was 29.1 µM [falling, single point].
With `CCc1cc(=O)oc2cc(OCC=C(C)C)ccc12`, the cell number change stood at 15.5%. In addition, under setting [1], the AC50 is 0.291 µM [rising, partial curve, poor fit].
Consider `O=C([O-])c1ccccc1-[n+]1c(-c2ccccc2)cc(-c2ccccc2)cc1-c1ccccc1`, for which the cell number change is -36.5%. Besides, under setting [2], the AC50 was 29.1 µM [falling, single point]. Besides, the AC50 under setting [1] is 1.46 µM [falling, partial curve].
Consider `COCCn1c(SCC(=O)Nc2ccccc2OC)nc2ccccc2c1=O`, for which the cell number change was -29.1%. Under setting [1], the AC50 is 6.51 µM [rising, single point].
Turning to `Cc1ccc(S(=O)(=O)Nc2cc(=O)[nH]c(SCc3ccccc3Cl)n2)cc1`, the cell number change was -2.88%. Under setting [1], the half-maximal activity concentration (AC50) is 8.2 µM [falling, partial curve, poor fit].
With `CC(NS(=O)(=O)c1ccc(Br)cc1)C(=O)NCC1CCCO1` (configuration not stated), the cell number change came out at 10.4%.
Consider `COc1cc(/C=N/NC(=O)CNC(=O)c2ccco2)ccc1O`, for which the cell number change is -16.5%. In addition, the half-maximal activity concentration (AC50) under setting [1] is 18.4 µM [falling, single point].
On to `CCNC(=O)N1C(=O)C2(OCCO2)c2cc(Br)ccc21`, for which the cell number change was -5.81%.
Consider `COc1ccc(NC(=O)Cc2ccc(Cl)cc2)cc1NC(=O)c1ccco1`, for which the cell number change stood at 142%. For the same molecule, the AC50 under setting [2] was 20.6 µM [rising, partial curve]. Also, under setting [1], the concentration at half-maximal activity (AC50) is 18.4 µM [rising, partial curve].
For `O=C(Cn1nnc(-c2cccs2)n1)NCc1cccs1`, the cell number change was -11.7%. Under setting [2], the concentration at half-maximal activity (AC50) was 0.731 µM [falling, full curve, poor fit].
Take `Cc1cc2[nH]c(=O)c(=O)[nH]c2cc1S(=O)(=O)N1CCN(c2cccc(C(F)(F)F)c2)CC1`: the cell number change amounted to 64.2%. In addition, the half-maximal activity concentration (AC50) under setting [2] was 23.1 µM [rising, single point]. Moreover, the AC50 under setting [1] was 16.4 µM [rising, single point].
For the molecule `CCc1ccc(CN2CCC(Oc3ccc(C(=O)N4CCCC4)cc3)CC2)cc1`, the cell number change came to 6.25%. The AC50 under setting [1] is 14.1 µM [rising, partial curve].
For the molecule `CCOC(=O)c1c(-c2ccccc2)oc2cc(Br)c(O)cc12`, the cell number change was -22.5%.
Consider `CCn1c(/C=C/c2ccccc2Cl)nc2ccccc2c1=O`, for which the cell number change was -0.346%. Further, the AC50 under setting [1] is 2.59 µM [rising, partial curve].
On to `O=C(NC1=NCCS1)c1sc2cc(F)ccc2c1Cl`, for which the cell number change is -15.1%.
On to `CN(Cc1ccccc1)S(=O)(=O)c1ccc(Cl)c(C(=O)NCCc2ccccn2)c1`, for which the half-maximal activity concentration (AC50) under setting [2] is 0.00461 µM [falling, full curve, poor fit].

These data come from PubChem BioAssay AID2685 (National Center for Advancing Translational Sciences (NCATS), 2010).
